According to patent US12601742B2, “Methods and materials for treating endometrial cancer by assessing combinations of mutations and expression levels” (Mayo Foundation for Medical Education and Research, priority 2020, dated 2026):
At least one structure is not confirmed: it was looked up by name or label, or the drawing left a doubt.

Assays:
Type in all cases: cell-based
[1] = system: ARK-2 cell line; experiment: qPCR expression of targeted genes after panobinostat exposure, ARK-2; conditions: ARK-2, qPCR, 24 hour exposure vs vehicle
[2] = system: HEC-1B cell line; experiment: qPCR expression of targeted genes after panobinostat exposure, HEC-1B; conditions: 24 hour exposure vs vehicle
[3] = system: ARK-2 cell line; experiment: MTT cell viability assay and synergy assessment, ARK-2; conditions: ARK-2, varying concentrations, constant ratio, 72 hours
Procedure: (§1) HEC-1B (Type I) and ARK-2 (Type II), platinum-insensitive EC cell lines, were used in this study. Both cell lines were cultured in DMEM (Dulbecco's Modified Eagle's Medium) media containing 10% FBS, 100 μg/mL streptomycin, 100 units/mL penicillin, and 2 mM L-glutamine. Cells were maintained in incubator at 37° C. in an atmosphere containing 5% CO2. Three thousand cells/well were seeded in triplicate in 96-well plates and cells were treated with increasing concentrations of panobinostat, GSK2141795, and carboplatin for 72 hours, respectively. CellTiter 96® Aqueous One Solution Cell Proliferation Assay was performed according to the manual to assess the half maximum inhibitory concentration (IC50). Constant ratio studies were carried out to investigate the combinatory effect of carboplatin with panobinostat and GSK2141795 in both HEC-1B and ARK-2 cell lines.

[4] = system: HEC-1B cell line; experiment: MTT cell viability assay and synergy assessment, HEC-1B; conditions: varying concentrations, constant ratio, 72 hours
Procedure: as §1

[5] = system: ARK-2 cells; experiment: Western blotting after exposure of ARK-2 cells to panobinostat; conditions: for FOXM1 level / acetyl-H3 level / c-MYC level / p21 level: ARK-2, western blotting, over time

Structure (SMILES): Cc1[nH]c2ccccc2c1CCNCc1ccc(/C=C/C(=O)NO)cc1 [panobinostat]
- expression of CCNA2 [1]: down regulation
- expression of CDKN1A (p21) [1]: Increased expression
- expression of CIP2A [1]: down regulation
- expression of E2F1 [1]: down regulation
- expression of EXO1 [1]: down regulation
- expression of FOXM1 [1]: down regulation
- expression of CCNA2 [2]: down regulation
- expression of CDKN1A (p21) [2]: Increased expression
- expression of CIP2A [2]: down regulation
- expression of E2F1 [2]: down regulation
- expression of EXO1 [2]: down regulation
- expression of FOXM1 [2]: down regulation
- combinatory effect of carboplatin with panobinostat (cell viability) [3]: synergism
- combinatory effect of carboplatin with panobinostat (cell viability) [4]: synergism
- FOXM1 level [5]: decrease
- acetyl-H3 level [5]: time dependent increase
- c-MYC level [5]: decrease
- p21 level [5]: time dependent increase
- FOXM1 level ([5]; listed as Panobinostat): inhibits the expression
- acetyl-H3 level ([5]; listed as Panobinostat): induces the expression
- c-MYC level ([5]; listed as Panobinostat): inhibits the expression
- p21 level ([5]; listed as Panobinostat): induces the expression
- p53 level ([5]; FIG. 11, over time): inhibits the expression
